Data from patent US20220267458A1.
These are yes or no findings as the source states them, for the method shown. Some binding calls cover weakened binding; strength is not graded here.

The chains behind the UniProt entries cited, without tags or fusion partners. Residues count along the entry.
UniProt Q9Y5U5, residues 26-241: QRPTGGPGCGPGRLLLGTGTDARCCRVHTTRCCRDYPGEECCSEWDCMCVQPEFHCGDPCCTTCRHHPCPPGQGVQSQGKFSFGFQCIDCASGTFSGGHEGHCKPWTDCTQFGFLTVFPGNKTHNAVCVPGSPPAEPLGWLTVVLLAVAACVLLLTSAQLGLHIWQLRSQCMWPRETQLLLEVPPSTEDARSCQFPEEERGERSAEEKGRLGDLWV

Experiments:
[1] = biological target: human GITR overexpressed on CHO cells (CHO-GITR) (human) (UniProt Q9Y5U5); test: flow cytometry on CHO-GITR cells, PE anti-human Fc detection
[2] = biological target: human GITR overexpressed on CHO cells (CHO-GITR) (human) (UniProt Q9Y5U5); test: flow cytometry on CHO-GITR cells, PE anti-human Fc detection, MFI

B1: hcIgG-04 (antibody, V domains shown)
VH: QVQLQESGGGSVQAGGSLRLSCTASGFTVDDSGMGWYRQAPGNECELVSTISSDGSTYYADSVKGRFTISQDNAKNTVYLQMNSLKPEDTAVYYCAAPRVGVGWVRPCDYEYNYWGQGTQVTVSS
B1 was tested, and the binding [1] was “binds” and the binding [2] was “binds”.
